The source of these data is the supplement of paper PMC10077471.

In all, about 1,900 compounds were measured (“excess over highest single agent (ExcessHSA) synergy score, 6x6 matrix”: median about -83, lowest 2% from about -370 on). The list shows a part of the results.

The test system of the experiment is NCI-H446. The experiment in a line: excess over highest single agent (ExcessHSA) synergy score, 6x6 matrix; higher = less synergy (more negative = stronger synergy). To be noted: 72 h; CellTiter-Glo viability. (Cellular ATP, detected with luciferase, serves as a proxy for viable cell number.)
`Oc1ccc2ccccc2c1SSc1c(O)ccc2ccccc12` + Cc1sc2c(c1C)C(c1ccc(Cl)cc1)=N[C@@H](CC(=O)OC(C)(C)C)c1nnc(C)n1-2 [NCGC00250412-19]: the “excess over highest single agent” value was found to be 56.9. Consider `COc1cc2nc(N(C)CCCNC(=O)C3CCCO3)nc(N)c2cc1OC` (stereo not drawn) + Cc1sc2c(c1C)C(c1ccc(Cl)cc1)=N[C@@H](CC(=O)OC(C)(C)C)c1nnc(C)n1-2 [NCGC00250412-19], for which the “excess over highest single agent” value is 6.26.

On to `CCN1CCN(CC(=O)Nc2ccc(-c3cccc4c(=O)cc(N5CCOCC5)oc34)c3sc4ccccc4c23)CC1` + Cc1sc2c(c1C)C(c1ccc(Cl)cc1)=N[C@@H](CC(=O)OC(C)(C)C)c1nnc(C)n1-2 [NCGC00250412-19], for which the “excess over highest single agent” value was -383. As for `COc1ccc(-c2ccc3ncc4c(c3c2)n(-c2ccc(N3CCNCC3)c(C(F)(F)F)c2)c(=O)n4C)cn1` + Cc1sc2c(c1C)C(c1ccc(Cl)cc1)=N[C@@H](CC(=O)OC(C)(C)C)c1nnc(C)n1-2 [NCGC00250412-19], the “excess over highest single agent” value was -20.2. To `CC(C)c1cc(-c2n[nH]c(=O)n2-c2ccc3c(ccn3C)c2)c(O)cc1O` + Cc1sc2c(c1C)C(c1ccc(Cl)cc1)=N[C@@H](CC(=O)OC(C)(C)C)c1nnc(C)n1-2 [NCGC00250412-19] belongs -243. `O=C(O)C1CCCN(CCC=C(c2ccccc2)c2ccccc2)C1` (stereo not drawn) + Cc1sc2c(c1C)C(c1ccc(Cl)cc1)=N[C@@H](CC(=O)OC(C)(C)C)c1nnc(C)n1-2 [NCGC00250412-19]: the “excess over highest single agent” value was -163.

For `CC(=O)O[C@]1(C(C)=O)CC[C@H]2[C@@H]3C=C(Cl)C4=CC(=O)[C@@H]5C[C@@H]5[C@]4(C)[C@H]3CC[C@@]21C` + Cc1sc2c(c1C)C(c1ccc(Cl)cc1)=N[C@@H](CC(=O)OC(C)(C)C)c1nnc(C)n1-2 [NCGC00250412-19], the “excess over highest single agent” value came out at 36.6. For the compound `C[C@]12CC[C@H]3[C@@H](CCC4=CC(=O)CC[C@@H]43)[C@@H]1CC[C@@H]2OC(=O)CCc1ccccc1` + Cc1sc2c(c1C)C(c1ccc(Cl)cc1)=N[C@@H](CC(=O)OC(C)(C)C)c1nnc(C)n1-2 [NCGC00250412-19], the “excess over highest single agent” value was -103.

For the compound `Cn1cc(-c2cnn3c(N)c(Br)c([C@@H]4CCCNC4)nc23)cn1` + Cc1sc2c(c1C)C(c1ccc(Cl)cc1)=N[C@@H](CC(=O)OC(C)(C)C)c1nnc(C)n1-2 [NCGC00250412-19], the “excess over highest single agent” value was -33.2. As to `N[C@@H]1CONC1=O` + Cc1sc2c(c1C)C(c1ccc(Cl)cc1)=N[C@@H](CC(=O)OC(C)(C)C)c1nnc(C)n1-2 [NCGC00250412-19], the “excess over highest single agent” value is -38.4. The same measure for `C=C1C[C@@]2(O)O[C@@]3(C[C@H]2C(C)C)[C@@H](C)CC[C@@H]13` + Cc1sc2c(c1C)C(c1ccc(Cl)cc1)=N[C@@H](CC(=O)OC(C)(C)C)c1nnc(C)n1-2 [NCGC00250412-19]: -34.6; for `O=C1NC(=O)/C(=C\c2ccc(-c3ccc(F)cc3)o2)S1` + Cc1sc2c(c1C)C(c1ccc(Cl)cc1)=N[C@@H](CC(=O)OC(C)(C)C)c1nnc(C)n1-2 [NCGC00250412-19]: 168; for `CC1=C(C(=O)O)N2C(=O)[C@@H](NC(=O)[C@H](N)C3=CCC=CC3)[C@H]2SC1` + Cc1sc2c(c1C)C(c1ccc(Cl)cc1)=N[C@@H](CC(=O)OC(C)(C)C)c1nnc(C)n1-2 [NCGC00250412-19]: -68.2. To `Cc1cc(Nc2ncc3c(n2)N(C)C(=O)N(c2cc(NC(=O)c4cccc(C(F)(F)F)c4)ccc2C)C3)n(C)n1` + Cc1sc2c(c1C)C(c1ccc(Cl)cc1)=N[C@@H](CC(=O)OC(C)(C)C)c1nnc(C)n1-2 [NCGC00250412-19] belongs -200; to `CC1(C)[C@H](C(=O)O)N2C(=O)C[C@H]2S1(=O)=O` + Cc1sc2c(c1C)C(c1ccc(Cl)cc1)=N[C@@H](CC(=O)OC(C)(C)C)c1nnc(C)n1-2 [NCGC00250412-19], 45.5; to `CC(=O)O[C@@H]1[C@@H](OC(C)=O)[C@@H](O)[C@H](Oc2c(-c3ccc(O)cc3)oc3cc(O)cc(O)c3c2=O)O[C@H]1C` + Cc1sc2c(c1C)C(c1ccc(Cl)cc1)=N[C@@H](CC(=O)OC(C)(C)C)c1nnc(C)n1-2 [NCGC00250412-19], 171. The same measure for `O=C(O)c1ccc(-c2c[nH]c3ncc(-c4ccccc4)cc23)cc1C1CCCC1` + Cc1sc2c(c1C)C(c1ccc(Cl)cc1)=N[C@@H](CC(=O)OC(C)(C)C)c1nnc(C)n1-2 [NCGC00250412-19]: -50.8; for `Cc1cccc(Nc2nc(N[C@@H]3CCCC[C@@H]3N)ncc2C(N)=O)c1` + Cc1sc2c(c1C)C(c1ccc(Cl)cc1)=N[C@@H](CC(=O)OC(C)(C)C)c1nnc(C)n1-2 [NCGC00250412-19]: -24; for `O=C(O)CNC(=O)c1c(O)c2ccccc2n(Cc2ccccc2)c1=O` + Cc1sc2c(c1C)C(c1ccc(Cl)cc1)=N[C@@H](CC(=O)OC(C)(C)C)c1nnc(C)n1-2 [NCGC00250412-19]: -90.7. As for `CNS(=O)(=O)CCc1ccc2[nH]cc(C3CCN(C)CC3)c2c1` + Cc1sc2c(c1C)C(c1ccc(Cl)cc1)=N[C@@H](CC(=O)OC(C)(C)C)c1nnc(C)n1-2 [NCGC00250412-19], the “excess over highest single agent” value is -72.2. To `CC(=O)Oc1ccccc1C(=O)O` + Cc1sc2c(c1C)C(c1ccc(Cl)cc1)=N[C@@H](CC(=O)OC(C)(C)C)c1nnc(C)n1-2 [NCGC00250412-19] belongs 280; to `COc1ccc2ccc(=O)oc2c1CC=C(C)C` + Cc1sc2c(c1C)C(c1ccc(Cl)cc1)=N[C@@H](CC(=O)OC(C)(C)C)c1nnc(C)n1-2 [NCGC00250412-19], -52.7; to `O=C(Nc1nc2cccc(-c3ccc(CN4CCS(=O)(=O)CC4)cc3)n2n1)C1CC1` + Cc1sc2c(c1C)C(c1ccc(Cl)cc1)=N[C@@H](CC(=O)OC(C)(C)C)c1nnc(C)n1-2 [NCGC00250412-19], 134. For `CC1=C(/C=C/C(C)=C/C=C/C(C)=C/C(=O)O)C(C)(C)CCC1` + Cc1sc2c(c1C)C(c1ccc(Cl)cc1)=N[C@@H](CC(=O)OC(C)(C)C)c1nnc(C)n1-2 [NCGC00250412-19], the “excess over highest single agent” value is -131. Turning to `C[C@]12CC[C@H](O)CC1=CC[C@@H]1[C@@H]2CC[C@]2(C)C(n3cnc4ccccc43)=CC[C@@H]12` + Cc1sc2c(c1C)C(c1ccc(Cl)cc1)=N[C@@H](CC(=O)OC(C)(C)C)c1nnc(C)n1-2 [NCGC00250412-19], the “excess over highest single agent” value is -225. Consider `Cc1c(C(=O)c2cccc3ccccc23)c2cccc3c2n1[C@H](CN1CCOCC1)CO3` + Cc1sc2c(c1C)C(c1ccc(Cl)cc1)=N[C@@H](CC(=O)OC(C)(C)C)c1nnc(C)n1-2 [NCGC00250412-19], for which the “excess over highest single agent” value is -99.1. As for `CC(C)=CC[C@@H](O)C1=CC(=O)c2c(O)ccc(O)c2C1=O` + Cc1sc2c(c1C)C(c1ccc(Cl)cc1)=N[C@@H](CC(=O)OC(C)(C)C)c1nnc(C)n1-2 [NCGC00250412-19], the “excess over highest single agent” value was -344. For `Cc1c(C)c2c(c(C)c1O)CCC(C)(COc1ccc(CC3SC(=O)NC3=O)cc1)O2` (stereo not drawn) + Cc1sc2c(c1C)C(c1ccc(Cl)cc1)=N[C@@H](CC(=O)OC(C)(C)C)c1nnc(C)n1-2 [NCGC00250412-19], the “excess over highest single agent” value was -122.

On to `COC(=O)C1=C(C)NC(C)=C(C(=O)OCCN2CCN(C(c3ccccc3)c3ccccc3)CC2)C1c1cccc([N+](=O)[O-])c1` (stereo not drawn) + Cc1sc2c(c1C)C(c1ccc(Cl)cc1)=N[C@@H](CC(=O)OC(C)(C)C)c1nnc(C)n1-2 [NCGC00250412-19], for which the “excess over highest single agent” value is -160. Regarding `COC(c1ccccc1)(c1ccccc1)[C@H](Oc1nc(C)cc(C)n1)C(=O)O` + Cc1sc2c(c1C)C(c1ccc(Cl)cc1)=N[C@@H](CC(=O)OC(C)(C)C)c1nnc(C)n1-2 [NCGC00250412-19], the “excess over highest single agent” value came out at 10.3. As to `CC(C)(C)C(=O)Oc1ccc(S(=O)(=O)Nc2ccccc2C(=O)NCC(=O)O)cc1` + Cc1sc2c(c1C)C(c1ccc(Cl)cc1)=N[C@@H](CC(=O)OC(C)(C)C)c1nnc(C)n1-2 [NCGC00250412-19], the “excess over highest single agent” value is -65.

For `C[N+]1(C)[C@@H]2C[C@@H](OC(=O)C(O)(c3cccs3)c3cccs3)C[C@H]1[C@@H]1O[C@@H]12` + Cc1sc2c(c1C)C(c1ccc(Cl)cc1)=N[C@@H](CC(=O)OC(C)(C)C)c1nnc(C)n1-2 [NCGC00250412-19], the “excess over highest single agent” value is -5.31. `Cc1cc(C(C)(C)C)c(O)c(C)c1CC1=NCCN1` + Cc1sc2c(c1C)C(c1ccc(Cl)cc1)=N[C@@H](CC(=O)OC(C)(C)C)c1nnc(C)n1-2 [NCGC00250412-19]: the “excess over highest single agent” value was 43.2. With `Oc1ccc2c3c1O[C@H]1c4[nH]c5c(c4C[C@@]4(O)[C@@H](C2)N(CC2CC2)CC[C@]314)C[C@@]1(O)[C@H]2Cc3ccc(O)c4c3[C@@]1(CCN2CC1CC1)[C@H]5O4` + Cc1sc2c(c1C)C(c1ccc(Cl)cc1)=N[C@@H](CC(=O)OC(C)(C)C)c1nnc(C)n1-2 [NCGC00250412-19], the “excess over highest single agent” value is -137. The same measure for `O=c1cc(N2CCOCC2)oc2c(-c3cccc4c3sc3ccccc34)cccc12` + Cc1sc2c(c1C)C(c1ccc(Cl)cc1)=N[C@@H](CC(=O)OC(C)(C)C)c1nnc(C)n1-2 [NCGC00250412-19]: -318; for `Cc1cc(NC(=O)Nc2ccc(N(C)C)cc2)c2cc(F)cc(F)c2n1` + Cc1sc2c(c1C)C(c1ccc(Cl)cc1)=N[C@@H](CC(=O)OC(C)(C)C)c1nnc(C)n1-2 [NCGC00250412-19]: -82.8; for `Cn1cc(-c2ccc3ncc(Cc4ccc5ncccc5c4)n3n2)cn1` + Cc1sc2c(c1C)C(c1ccc(Cl)cc1)=N[C@@H](CC(=O)OC(C)(C)C)c1nnc(C)n1-2 [NCGC00250412-19]: -121. Regarding `CC1C(=O)OC2C(O)C34C5CC(C(C)(C)C)C36C(OC(=O)C6O)OC4(C(=O)O5)C12O` (stereo not drawn) + Cc1sc2c(c1C)C(c1ccc(Cl)cc1)=N[C@@H](CC(=O)OC(C)(C)C)c1nnc(C)n1-2 [NCGC00250412-19], the “excess over highest single agent” value is -82.9.
